This assay deals with T1, BD-OsTORFRB (rice) (UniProt Q0DJS1).
T1 sequence: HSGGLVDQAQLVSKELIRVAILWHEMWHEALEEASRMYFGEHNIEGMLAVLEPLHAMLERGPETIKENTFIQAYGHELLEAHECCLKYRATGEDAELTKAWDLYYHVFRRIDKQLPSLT
The experiment in a line: two-hybrid; double transformation of BD (pGBKT7) and AD (pGADT7) vectors in yeast; growth on QDO (SD-Leu-Trp-His-Ade) against DDO (SD-Leu-Trp); 200 μL (normal) or 600 μL (high) inoculation; blue colonies with X-α-Gal.

No constants are given. Whether binding was seen depends on the method and setting. A result given as binding can be weak or reduced; the word gives no strength. Where a sequence is shown, tags or fusion partners need not be part of it.

For the substance “AD-OsFKBP12 (full length, 1-112 AA) (rice)”, the binding entry is “binds weakly”.

(Values after publication PMC11732086 (2024).)
